Measurements as given in paper PMC7958265.
Results are given in words; binding and its absence hold for the method and conditions named. Some binding calls cover weakened binding; strength is not graded here.

Chains of the proteins cited; added tags and fusions are not shown. Lines headed by an entry give the natural chain unless they say otherwise; changes in a name come on top.
UniProt P09429: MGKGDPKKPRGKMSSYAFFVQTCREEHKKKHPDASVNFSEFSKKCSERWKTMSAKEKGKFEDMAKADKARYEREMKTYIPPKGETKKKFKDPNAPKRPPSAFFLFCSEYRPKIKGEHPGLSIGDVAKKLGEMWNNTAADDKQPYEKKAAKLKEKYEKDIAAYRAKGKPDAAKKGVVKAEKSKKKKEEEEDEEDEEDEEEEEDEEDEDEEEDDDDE
UniProt P02763: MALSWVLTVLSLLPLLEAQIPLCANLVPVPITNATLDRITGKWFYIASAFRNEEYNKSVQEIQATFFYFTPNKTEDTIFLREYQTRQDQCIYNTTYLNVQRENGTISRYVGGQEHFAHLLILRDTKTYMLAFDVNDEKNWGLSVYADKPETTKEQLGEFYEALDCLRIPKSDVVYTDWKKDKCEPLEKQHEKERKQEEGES

Target: HMGB1 recombinant protein (High mobility group box 1) (UniProt P09429)
Assay: ELISA; HMGB1 (500 ng to 1 µg) immobilised on the plate, α1-acid glycoprotein 1 µg/well in solution, streptavidin-HRP; 20 mM Hepes, 150 mM NaCl, 500 µM ZnCl2; pH 7.5, and a pH series from 7.1 to 7.8; RT; both purified

binding: binds
Substance: human α1-acid glycoprotein (from UniProt P02763 19-201)
